Measurements as given in PMC4758748.
No constants are given. Whether binding was seen depends on the method and setting. For some assays here: In cells and extracts the contact can be indirect. Some results given as binding are weak or reduced against the parent protein; the word gives no strength. Sequences can lack the tags named with a protein.

Experiments:
[1] = biological target: T1, Chs2-215-629 (two-hybrid fusion) (S. cerevisiae) (UniProt P14180); assay: two-hybrid; vectors pGADT7 and pGBKT7 (Clontech); growth for two or three days at 30°C on Synthetic Complete medium lacking leucine, tryptophan and histidine (selective)
T1 sequence: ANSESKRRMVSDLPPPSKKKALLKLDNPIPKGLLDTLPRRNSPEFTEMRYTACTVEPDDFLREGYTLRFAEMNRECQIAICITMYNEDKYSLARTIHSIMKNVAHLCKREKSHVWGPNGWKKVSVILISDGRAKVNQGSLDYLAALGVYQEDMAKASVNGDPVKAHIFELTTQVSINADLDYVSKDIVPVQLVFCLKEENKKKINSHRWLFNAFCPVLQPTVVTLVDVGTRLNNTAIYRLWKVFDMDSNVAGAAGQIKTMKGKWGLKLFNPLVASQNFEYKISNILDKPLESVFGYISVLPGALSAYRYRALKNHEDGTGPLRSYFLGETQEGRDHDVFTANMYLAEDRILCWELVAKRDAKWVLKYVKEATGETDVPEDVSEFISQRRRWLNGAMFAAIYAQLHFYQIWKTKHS

[2] = biological target: T2, Chs2-1-629 (two-hybrid fusion) (S. cerevisiae) (UniProt P14180); assay: as above
T2 sequence: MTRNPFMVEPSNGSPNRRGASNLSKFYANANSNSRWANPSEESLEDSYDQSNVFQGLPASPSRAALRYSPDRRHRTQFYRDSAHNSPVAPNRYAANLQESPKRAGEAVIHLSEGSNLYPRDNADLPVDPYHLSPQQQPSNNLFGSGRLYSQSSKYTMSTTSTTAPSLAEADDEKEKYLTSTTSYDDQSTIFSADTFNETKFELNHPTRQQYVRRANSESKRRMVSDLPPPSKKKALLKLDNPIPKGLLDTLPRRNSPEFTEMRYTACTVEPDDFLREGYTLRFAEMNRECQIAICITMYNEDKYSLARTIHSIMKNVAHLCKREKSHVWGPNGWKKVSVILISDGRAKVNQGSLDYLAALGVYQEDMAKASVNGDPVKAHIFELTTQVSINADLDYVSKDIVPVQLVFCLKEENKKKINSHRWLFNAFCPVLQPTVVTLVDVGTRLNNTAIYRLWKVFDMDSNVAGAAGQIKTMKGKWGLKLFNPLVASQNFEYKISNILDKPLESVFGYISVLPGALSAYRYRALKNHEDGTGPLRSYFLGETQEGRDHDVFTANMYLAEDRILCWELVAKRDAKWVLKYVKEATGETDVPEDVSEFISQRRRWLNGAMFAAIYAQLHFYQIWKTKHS

[3] = biological target: T3, Streptag-Chs2-215-629 (S. cerevisiae) (UniProt P14180); assay: pull-down; E. coli cultures expressing a Streptag fusion and a 6His fusion mixed after IPTG induction, one common cell extract with two recombinant proteins; Strep-Tactin Superflow (eluted with 2.5 mM d-Desthiobiotin), then Ni-NTA agarose (eluted with 250 mM imidazole); SDS-PAGE, Coomassie, immunoblot (anti-Streptag, anti-His), mass spectrometry of the band
T3 sequence: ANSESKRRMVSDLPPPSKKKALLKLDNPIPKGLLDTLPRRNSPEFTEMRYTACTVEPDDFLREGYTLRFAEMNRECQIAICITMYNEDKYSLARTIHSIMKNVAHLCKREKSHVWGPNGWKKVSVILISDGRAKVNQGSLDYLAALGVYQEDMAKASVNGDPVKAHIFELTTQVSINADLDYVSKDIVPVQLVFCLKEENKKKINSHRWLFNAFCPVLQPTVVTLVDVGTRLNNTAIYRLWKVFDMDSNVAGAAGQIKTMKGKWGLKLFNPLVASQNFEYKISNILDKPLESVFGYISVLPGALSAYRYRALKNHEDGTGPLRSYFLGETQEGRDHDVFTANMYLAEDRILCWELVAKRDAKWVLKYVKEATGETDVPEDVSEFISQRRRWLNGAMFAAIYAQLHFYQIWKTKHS

| Binder | binding [1] | binding [2] | binding [3] |
| --- | --- | --- | --- |
| full-length Inn1 (two-hybrid fusion) (protein, UniProt P53901 1-409) MSEEVWNGNQGILSVYVSKARDLPNLNKLDKQNVMLRLRIAHMTRASNTLHRAGQNPVFHYLEKFDITPEIKPLMYVEVYCDRRKKSPLPIGRCEIDLLNAIRADPKEGYCTWYELKRSGDEFAGTIFIELTFTPKVPRLNRDDLNKEMDRLDSSMAMRPIPPLPTESEYDYVHGSTMRQITPQCVSTSHEDKDEGQPYRNGNVFSMSSKSDTAVLANSNDPIILPPTFSASMGTTSTLETNDTAISNTSNTKFHFANLRKLKEKINIFKNPDSSTNNCQNESNKVDIEALQKAIGVTSLSYDEDDDDDDENDAFYSSSHRVSHNYNQPPLPPIPTRDDMSNYSSSRNTPLVRRDRPSRLDSSSPNSHPHPSGLNSPKLPPLPTTSNSNFNSRKNSMSPTRKRPPPRLS | binds | – | – |
| Cyk3-1-594 (two-hybrid fusion) (domain or fragment, UniProt Q07533 1-594) MATNLTSLKPPFKVKARYGWSGQTKGDLGFLEGDIMEVTRIAGSWFYGKLLRNKKCSGYFPHNFVILLEERLNSSTENGRQPSKIVESFEKSNKVVIPPVPSRYSDERPRPKKKLSSSMPNSPKKPVDSLTKARKAKSKEMVNEKNIYNTQSSRHHNNSAPNLPLASHSKPQVRNFEESMNNPLPPLPPLPDLDNMRKTDKRAPKKSYSANDLHMARSSREYNYYKDNQKFYDGFIPEKRYSLEEDSISSGLFSNSQYLNDSACSSENSFALMSDFSATSAGSFARHKYAQSFSDSLQRSQNANGCSTKINDSQEFGDSNASSRNGKMGDILRKIIIPKRNTNIYSSSVSSPKSPKAYPKLPDIQNLNLSATPDEARDWIAVKCHLNRARTLTKYDKHPRYMRALEENRDLILHPQDSIYNGLNTNEVKGNTKPGLVDVELAELNIEYIDKMTWKRCIRDGTMTLDSWAQTTFSARYSTVLEKLRGIYIFCTEMFALTDDNGTSDFSAEPQNLEKILYRKHCTPYELTWLFKKLANSLGITCEIVIGFLKTPSAINWEFKYNHCWLRILVNKEWRFIDVILGNVTNPIHEFVNN | binds | binds | – |
| Cyk3-475-885 (two-hybrid fusion) (domain or fragment, UniProt Q07533 475-885) ARYSTVLEKLRGIYIFCTEMFALTDDNGTSDFSAEPQNLEKILYRKHCTPYELTWLFKKLANSLGITCEIVIGFLKTPSAINWEFKYNHCWLRILVNKEWRFIDVILGNVTNPIHEFVNNRKIKKAENSYFLMAPLEMIYTHIPPREFEQHIVPSIDQLSALYLPLVFPSFFKNELKLYKFSTALSFLEDSEIYECSLEIPNDVEVFASVVIPTDNEEASSAYRNMELALTQIKKQKAESGRRIALIKAVLPPNVNKGSLYIHSGVRGTQTSIANIHPLSMMVPLTHKGSNMKYEFVIKIPSESIQKIELYIVEPQSRYLFVGNEYSFEVIQSPSDGIVYSSDEGPNQNRKQPMAIKSPSGRVHELVKSDPHFPYGTWKGSIKIKEPGVWSALVIADSGIGWSVFAEWLCV | binds | binds | – |
| Cyk3-475-764 (two-hybrid fusion) (domain or fragment, UniProt Q07533 475-764) ARYSTVLEKLRGIYIFCTEMFALTDDNGTSDFSAEPQNLEKILYRKHCTPYELTWLFKKLANSLGITCEIVIGFLKTPSAINWEFKYNHCWLRILVNKEWRFIDVILGNVTNPIHEFVNNRKIKKAENSYFLMAPLEMIYTHIPPREFEQHIVPSIDQLSALYLPLVFPSFFKNELKLYKFSTALSFLEDSEIYECSLEIPNDVEVFASVVIPTDNEEASSAYRNMELALTQIKKQKAESGRRIALIKAVLPPNVNKGSLYIHSGVRGTQTSIANIHPLSMMVPLTHKGS | binds | no binding | – |
| Cyk3-1-475 (two-hybrid fusion) (domain or fragment, UniProt Q07533 1-475) MATNLTSLKPPFKVKARYGWSGQTKGDLGFLEGDIMEVTRIAGSWFYGKLLRNKKCSGYFPHNFVILLEERLNSSTENGRQPSKIVESFEKSNKVVIPPVPSRYSDERPRPKKKLSSSMPNSPKKPVDSLTKARKAKSKEMVNEKNIYNTQSSRHHNNSAPNLPLASHSKPQVRNFEESMNNPLPPLPPLPDLDNMRKTDKRAPKKSYSANDLHMARSSREYNYYKDNQKFYDGFIPEKRYSLEEDSISSGLFSNSQYLNDSACSSENSFALMSDFSATSAGSFARHKYAQSFSDSLQRSQNANGCSTKINDSQEFGDSNASSRNGKMGDILRKIIIPKRNTNIYSSSVSSPKSPKAYPKLPDIQNLNLSATPDEARDWIAVKCHLNRARTLTKYDKHPRYMRALEENRDLILHPQDSIYNGLNTNEVKGNTKPGLVDVELAELNIEYIDKMTWKRCIRDGTMTLDSWAQTTFSA | binds | binds | – |
| Cyk3-765-885 (two-hybrid fusion) (domain or fragment, UniProt Q07533 765-885) NMKYEFVIKIPSESIQKIELYIVEPQSRYLFVGNEYSFEVIQSPSDGIVYSSDEGPNQNRKQPMAIKSPSGRVHELVKSDPHFPYGTWKGSIKIKEPGVWSALVIADSGIGWSVFAEWLCV | binds | binds | – |
| 6His-tagged-Cyk3 (protein, UniProt Q07533 1-885) MATNLTSLKPPFKVKARYGWSGQTKGDLGFLEGDIMEVTRIAGSWFYGKLLRNKKCSGYFPHNFVILLEERLNSSTENGRQPSKIVESFEKSNKVVIPPVPSRYSDERPRPKKKLSSSMPNSPKKPVDSLTKARKAKSKEMVNEKNIYNTQSSRHHNNSAPNLPLASHSKPQVRNFEESMNNPLPPLPPLPDLDNMRKTDKRAPKKSYSANDLHMARSSREYNYYKDNQKFYDGFIPEKRYSLEEDSISSGLFSNSQYLNDSACSSENSFALMSDFSATSAGSFARHKYAQSFSDSLQRSQNANGCSTKINDSQEFGDSNASSRNGKMGDILRKIIIPKRNTNIYSSSVSSPKSPKAYPKLPDIQNLNLSATPDEARDWIAVKCHLNRARTLTKYDKHPRYMRALEENRDLILHPQDSIYNGLNTNEVKGNTKPGLVDVELAELNIEYIDKMTWKRCIRDGTMTLDSWAQTTFSARYSTVLEKLRGIYIFCTEMFALTDDNGTSDFSAEPQNLEKILYRKHCTPYELTWLFKKLANSLGITCEIVIGFLKTPSAINWEFKYNHCWLRILVNKEWRFIDVILGNVTNPIHEFVNNRKIKKAENSYFLMAPLEMIYTHIPPREFEQHIVPSIDQLSALYLPLVFPSFFKNELKLYKFSTALSFLEDSEIYECSLEIPNDVEVFASVVIPTDNEEASSAYRNMELALTQIKKQKAESGRRIALIKAVLPPNVNKGSLYIHSGVRGTQTSIANIHPLSMMVPLTHKGSNMKYEFVIKIPSESIQKIELYIVEPQSRYLFVGNEYSFEVIQSPSDGIVYSSDEGPNQNRKQPMAIKSPSGRVHELVKSDPHFPYGTWKGSIKIKEPGVWSALVIADSGIGWSVFAEWLCV | – | – | binds |
| Inn1-K31A (recombinant, E. coli) (protein, UniProt P53901 1-409) MSEEVWNGNQGILSVYVSKARDLPNLNKLDAQNVMLRLRIAHMTRASNTLHRAGQNPVFHYLEKFDITPEIKPLMYVEVYCDRRKKSPLPIGRCEIDLLNAIRADPKEGYCTWYELKRSGDEFAGTIFIELTFTPKVPRLNRDDLNKEMDRLDSSMAMRPIPPLPTESEYDYVHGSTMRQITPQCVSTSHEDKDEGQPYRNGNVFSMSSKSDTAVLANSNDPIILPPTFSASMGTTSTLETNDTAISNTSNTKFHFANLRKLKEKINIFKNPDSSTNNCQNESNKVDIEALQKAIGVTSLSYDEDDDDDDENDAFYSSSHRVSHNYNQPPLPPIPTRDDMSNYSSSRNTPLVRRDRPSRLDSSSPNSHPHPSGLNSPKLPPLPTTSNSNFNSRKNSMSPTRKRPPPRLS | – | – | binds |
| 6His-tagged-Inn1-C2 (domain or fragment, UniProt P53901 1-134) MSEEVWNGNQGILSVYVSKARDLPNLNKLDKQNVMLRLRIAHMTRASNTLHRAGQNPVFHYLEKFDITPEIKPLMYVEVYCDRRKKSPLPIGRCEIDLLNAIRADPKEGYCTWYELKRSGDEFAGTIFIELTFT | – | – | binds |
| 6His-tagged-Inn1-C2-K31A (domain or fragment, UniProt P53901 1-134) MSEEVWNGNQGILSVYVSKARDLPNLNKLDAQNVMLRLRIAHMTRASNTLHRAGQNPVFHYLEKFDITPEIKPLMYVEVYCDRRKKSPLPIGRCEIDLLNAIRADPKEGYCTWYELKRSGDEFAGTIFIELTFT | – | – | binds |
| Cyk3-475-594 (two-hybrid fusion) (domain or fragment, UniProt Q07533 475-594) ARYSTVLEKLRGIYIFCTEMFALTDDNGTSDFSAEPQNLEKILYRKHCTPYELTWLFKKLANSLGITCEIVIGFLKTPSAINWEFKYNHCWLRILVNKEWRFIDVILGNVTNPIHEFVNN | no binding | no binding | – |
